# Measurements from publication PMC12661054, “The CIP2A-TOPBP1 axis facilitates mitotic DNA repair via MiDAS and MMEJ” (Nature Communications, 2025).
# The chains behind the UniProt entries cited, without tags or fusion partners.
# UniProt Q92547: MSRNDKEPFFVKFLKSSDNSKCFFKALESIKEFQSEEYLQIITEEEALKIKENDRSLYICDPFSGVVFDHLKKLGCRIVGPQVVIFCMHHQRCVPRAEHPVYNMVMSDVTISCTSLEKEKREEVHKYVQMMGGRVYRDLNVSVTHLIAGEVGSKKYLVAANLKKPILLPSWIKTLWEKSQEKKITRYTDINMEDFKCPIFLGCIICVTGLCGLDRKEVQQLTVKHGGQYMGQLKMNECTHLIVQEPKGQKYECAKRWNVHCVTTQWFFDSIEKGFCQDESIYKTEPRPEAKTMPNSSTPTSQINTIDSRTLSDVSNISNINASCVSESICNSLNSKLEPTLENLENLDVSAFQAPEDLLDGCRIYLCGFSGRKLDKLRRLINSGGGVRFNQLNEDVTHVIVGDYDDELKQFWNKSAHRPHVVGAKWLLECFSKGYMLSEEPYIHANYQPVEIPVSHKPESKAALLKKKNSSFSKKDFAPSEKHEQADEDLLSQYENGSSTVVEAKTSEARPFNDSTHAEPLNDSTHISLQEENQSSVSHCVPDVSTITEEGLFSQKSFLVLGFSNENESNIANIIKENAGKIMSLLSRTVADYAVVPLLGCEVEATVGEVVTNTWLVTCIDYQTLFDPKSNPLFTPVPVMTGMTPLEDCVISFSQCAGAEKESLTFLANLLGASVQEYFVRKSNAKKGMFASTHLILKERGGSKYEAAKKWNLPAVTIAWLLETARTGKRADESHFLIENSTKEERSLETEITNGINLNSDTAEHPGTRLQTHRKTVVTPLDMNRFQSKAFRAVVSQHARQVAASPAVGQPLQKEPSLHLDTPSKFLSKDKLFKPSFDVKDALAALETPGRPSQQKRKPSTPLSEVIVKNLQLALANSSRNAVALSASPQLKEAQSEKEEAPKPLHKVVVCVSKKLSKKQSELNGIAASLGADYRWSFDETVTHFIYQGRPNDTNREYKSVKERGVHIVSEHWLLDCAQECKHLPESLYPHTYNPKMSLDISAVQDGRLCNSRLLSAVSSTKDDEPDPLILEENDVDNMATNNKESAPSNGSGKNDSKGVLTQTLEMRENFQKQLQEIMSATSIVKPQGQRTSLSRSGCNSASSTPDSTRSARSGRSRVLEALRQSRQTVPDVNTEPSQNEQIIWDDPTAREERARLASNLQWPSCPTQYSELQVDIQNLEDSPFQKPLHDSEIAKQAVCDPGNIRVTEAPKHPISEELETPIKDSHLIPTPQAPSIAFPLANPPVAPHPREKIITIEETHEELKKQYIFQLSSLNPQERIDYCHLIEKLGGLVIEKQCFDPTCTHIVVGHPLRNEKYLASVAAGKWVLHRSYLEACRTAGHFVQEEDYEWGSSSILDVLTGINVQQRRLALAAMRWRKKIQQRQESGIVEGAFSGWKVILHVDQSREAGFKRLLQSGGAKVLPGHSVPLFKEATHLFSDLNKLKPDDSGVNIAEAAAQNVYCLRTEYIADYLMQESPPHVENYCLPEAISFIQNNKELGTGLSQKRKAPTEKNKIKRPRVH
# These are yes or no findings as the source states them, for the method shown. In cells and extracts the contact can be indirect. These calls come from enrichment with a bait or labelling near it, and not all partners need be listed.
# B1: EME1 (endogenous) (protein, UniProt Q96AY2 1-570)
# chain: MALKKSSPSLDSGDSDSEELPTFAFLKKEPSSTKRRQPEREEKIVVVDISDCEASCPPAPELFSPPVPEIAETVTQTQPVRLLSSESEDEEEFIPLAQRLTCKFLTHKQLSPEDSSSPVKSVLDHQNNEGASCDWKKPFPKIPEVPLHDTPERSAADNKDLILDPCCQLPAYLSTCPGQSSSLAVTKTNSDILPPQKKTKPSQKVQGRGSHGCRQQRQARQKESTLRRQERKNAALVTRMKAQRPEECLKHIIVVLDPVLLQMEGGGQLLGALQTMECRCVIEAQAVPCSVTWRRRAGPSEDREDWVEEPTVLVLLRAEAFVSMIDNGKQGSLDSTMKGKETLQGFVTDITAKTAGKALSLVIVDQEKCFSAQNPPRRGKQGANKQTKKQQQRQPEASIGSMVSRVDAEEALVDLQLHTEAQAQIVQSWKELADFTCAFTKAVAEAPFKKLRDETTFSFCLESDWAGGVKVDLAGRGLALVWRRQIQQLNRVSLEMASAVVNAYPSPQLLVQAYQQCFSDKERQNLLADIQVRRGEGVTSTSRRIGPELSRRIYLQMTTLQPHLSLDSAD
# B2: ERCC4/XPF (endogenous) (protein, UniProt Q92889 1-916)
# chain: MESGQPARRIAMAPLLEYERQLVLELLDTDGLVVCARGLGADRLLYHFLQLHCHPACLVLVLNTQPAEEEYFINQLKIEGVEHLPRRVTNEITSNSRYEVYTQGGVIFATSRILVVDFLTDRIPSDLITGILVYRAHRIIESCQEAFILRLFRQKNKRGFIKAFTDNAVAFDTGFCHVERVMRNLFVRKLYLWPRFHVAVNSFLEQHKPEVVEIHVSMTPTMLAIQTAILDILNACLKELKCHNPSLEVEDLSLENAIGKPFDKTIRHYLDPLWHQLGAKTKSLVQDLKILRTLLQYLSQYDCVTFLNLLESLRATEKAFGQNSGWLFLDSSTSMFINARARVYHLPDAKMSKKEKISEKMEIKEGEETKKELVLESNPKWEALTEVLKEIEAENKESEALGGPGQVLICASDDRTCSQLRDYITLGAEAFLLRLYRKTFEKDSKAEEVWMKFRKEDSSKRIRKSHKRPKDPQNKERASTKERTLKKKKRKLTLTQMVGKPEELEEEGDVEEGYRREISSSPESCPEEIKHEEFDVNLSSDAAFGILKEPLTIIHPLLGCSDPYALTRVLHEVEPRYVVLYDAELTFVRQLEIYRASRPGKPLRVYFLIYGGSTEEQRYLTALRKEKEAFEKLIREKASMVVPEEREGRDETNLDLVRGTASADVSTDTRKAGGQEQNGTQQSIVVDMREFRSELPSLIHRRGIDIEPVTLEVGDYILTPEMCVERKSISDLIGSLNNGRLYSQCISMSRYYKRPVLLIEFDPSKPFSLTSRGALFQEISSNDISSKLTLLTLHFPRLRILWCPSPHATAELFEELKQSKPQPDAATALAITADSETLPESEKYNPGPQDFLLKMPGVNAKNCRSLMHHVKNIAELAALSQDELTSILGNAANAKQLYDFIHTSFAEVVSKGKGKK
# B3: ERCC1 (endogenous) (protein, UniProt P07992 1-297)
# chain: MDPGKDKEGVPQPSGPPARKKFVIPLDEDEVPPGVAKPLFRSTQSLPTVDTSAQAAPQTYAEYAISQPLEGAGATCPTGSEPLAGETPNQALKPGAKSNSIIVSPRQRGNPVLKFVRNVPWEFGDVIPDYVLGQSTCALFLSLRYHNLHPDYIHGRLQSLGKNFALRVLLVQVDVKDPQQALKELAKMCILADCTLILAWSPEEAGRYLETYKAYEQKPADLLMEKLEQDFVSRVTECLTTVKSVNKTDSQTLLTTFGSLEQLIAASREDLALCPGLGPQKARRLFDVLHEPFLKVP
# B4: MUS81 (endogenous) (protein, UniProt Q96NY9 1-551)
# chain: MAAPVRLGRKRPLPACPNPLFVRWLTEWRDEATRSRRRTRFVFQKALRSLRRYPLPLRSGKEAKILQHFGDGLCRMLDERLQRHRTSGGDHAPDSPSGENSPAPQGRLAEVQDSSMPVPAQPKAGGSGSYWPARHSGARVILLVLYREHLNPNGHHFLTKEELLQRCAQKSPRVAPGSARPWPALRSLLHRNLVLRTHQPARYSLTPEGLELAQKLAESEGLSLLNVGIGPKEPPGEETAVPGAASAELASEAGVQQQPLELRPGEYRVLLCVDIGETRGGGHRPELLRELQRLHVTHTVRKLHVGDFVWVAQETNPRDPANPGELVLDHIVERKRLDDLCSSIIDGRFREQKFRLKRCGLERRVYLVEEHGSVHNLSLPESTLLQAVTNTQVIDGFFVKRTADIKESAAYLALLTRGLQRLYQGHTLRSRPWGTPGNPESGAMTSPNPLCSLLTFSDFNAGAIKNKAQSVREVFARQLMQVRGVSGEKAAALVDRYSTPASLLAAYDACATPKEQETLLSTIKCGRLQRNLGPALSRTLSQLYCSYGPLT
# Biological target: TOPBP1 (endogenous) (human (endogenous in HEK293TN)) (UniProt Q92547)
# Test: affinity purification with mass spectrometry; endogenous TOPBP1 Co-IPs from asynchronous and M phase synchronised HEK293TN cells; TMT isobaric labelling, quantitative LC-MS
row,binding,Binder
1,binds,B1
2,binds,B2

# Biological target: TOPBP1 (endogenous) (human (endogenous in HEK293TN)) (UniProt Q92547)
# Test: affinity purification with mass spectrometry; endogenous TOPBP1 precipitated with anti-TOPBP1 (A300-111A) on Dynabeads protein G from benzonase-treated HEK293TN lysates (asynchronous, S phase, M phase); IgG beads as control; label-free DIA LC-MS
row,binding,Binder
1,binds,B3
2,binds,B4
3,binds,B1
4,binds,B2
